Data source: PubChem BioAssay AID504804 (Drosophila RNAi Screening Center, 2011)
The deposit covers about 19,000 reagents; below is a random part of those that have a named target and a result. Of all reagents, 47 (0.25%) were called active. 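Signals are raw, not normalised; exact z-scores behind calls not deposited; actives needed confirmation, so some wells reaching 2 SD are inactive.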 Entries without a mark were called inactive. Reagents against one gene are numbered here. Names joined by + are all predicted targets of the reagent.

Purpose: 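Knock-downs shielding fly cells from apoptosis caused by DNA damage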 (primary screen)
Cells: Drosophila Kc cells
Reagent: long dsRNA against Drosophila genes, 0.5 µg dsRNA per well
Duration: 96 h (48 h knock-down, then 48 h drug)
Treatment: doxorubicin 5 µg/ml for 48 h, added 48 h after dsRNA
Detection: 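Luminescent ATP counts per replicate, not normalised, reflecting viable cells after 48 h dsRNA knock-down followed by 48 h of 5 µg/ml doxorubicin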
Scale: raw ATP luminescence: higher = more viable cells, protection from doxorubicin
Active means: 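z-score of 2 or more over plate mean in both duplicates, retained only when retests and separate dsRNAs confirm the protection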

| Target gene | reagent no. | raw ATP luminescence, replicate 1 | raw ATP luminescence, replicate 2 |
| --- | --- | --- | --- |
| mthl12 | 1 | 1.85e5 | 1.39e5 |
| CG32280 | 1 | 1.25e5 | 1.51e5 |
| mAChR-A | 1 | 67937 | 63530 |
| CG33310 | 1 | 66533 | 73413 |
| Br140 | 1 | 58420 | 47620 |
| Gs1l | 1 | 24607 | 30213 |
| COX5BL | 1 | 24607 | 33533 |
| ebd1 | 1 | 83280 | 62517 |
| CG10098 | 1 | 52960 | 21607 |
| CG3589 | 1 | 80443 | 45960 |
| CG12111 | 1 | 54920 | 57140 |
| Lsm11 | 1 | 45633 | 78583 |
| bi | 1 | 31230 | 45910 |
| CG31251 | 1 | 38000 | 28370 |
| CG5290 | 1 | 32950 | 32393 |
| djl | 1 | 53573 | 51053 |
| MESK2 | 1 | 71180 | 82160 |
| CG34260 + cmpy | 1 | 61477 | 60107 |
| Jhbp2 | 1 | 53917 | 50130 |
| Cpr65Ea | 1 | 75870 | 91890 |
| CG15563 | 1 | 70630 | 56030 |
| CG18420 | 1 | 67757 | 72217 |
| CG6254 | 1 | 61073 | 19790 |
| CG12902 | 1 | 61997 | 71747 |
| HGTX | 1 | 76050 | 84437 |
| HGTX | 2 | 71063 | 66467 |
| Tim8 | 1 | 3.95e5 | 3.23e5 |
| CG4836 | 1 | 41483 | 46870 |
| CG16782 | 1 | 63540 | 54250 |
| Herp | 1 | 1.08e5 | 65750 |
| SerRS | 1 | 97467 | 81393 |
| GluRIIA | 1 | 21583 | 29977 |
| dUTPase | 1 | 77520 | 71493 |
| CG5674 | 1 | 21917 | 20803 |
| CG34256 | 1 | 57523 | 54190 |
| d4 | 1 | 77043 | 66393 |
| Ir93a | 1 | 41840 | 40037 |
| Ir93a | 2 | 53090 | 80530 |
| nxf4 | 1 | 70707 | 55827 |
| yellow-d | 1 | 36413 | 59820 |
| ldbr | 1 | 38380 | 36617 |
| GstD7 | 1 | 47853 | 67820 |
| Nmdmc | 1 | 86453 | 42250 |
| ND-30 | 1 | 61003 | 48017 |
| Sqor | 1 | 43850 | 41170 |
| TrpA1 | 1 | 78757 | 83420 |
| primo-2 + primo-1 | 1 | 66690 | 80630 |
| jb | 1 | 3.67e5 | 3.45e5 |
| RYBP | 1 | 68400 | 63677 |
| CG32568 | 1 | 2.90e5 | 3.37e5 |
| nahoda | 1 | 71353 | 58823 |
| nahoda | 2 | 74077 | 88933 |
| eIF6 | 1 | 72043 | 73260 |
| mRpL32 | 1 | 49780 | 67440 |
| CG17570 | 1 | 59520 | 64990 |
| CG17570 | 2 | 65610 | 64607 |
| hoe2 | 1 | 23847 | 29617 |
| CG33144 | 1 | 61690 | 42170 |
| CG33144 | 2 | 34567 | 1.01e5 |
| ms(2)34Fe | 1 | 69043 | 96027 |
| TrpRS | 1 | 2213 | 53207 |
| CG1571 | 1 | 26130 | 38730 |
| Cpr72Ea | 1 | 18017 | 25907 |
| geminin | 1 | 56803 | 53830 |
| Tango9 | 1 | 73303 | 32973 |
| Acyp | 1 | 65500 | 73053 |
| CG31872 | 1 | 31183 | 67707 |
| CG31872 | 2 | 40123 | 79900 |
| CG9044 | 1 | 1.12e5 | 79737 |
| CG8159 | 1 | 70350 | 68807 |
| Meics | 1 | 74260 | 51677 |
| CG42306 + Gint3 | 1 | 56797 | 65210 |
| TTLL3A | 1 | 26767 | 25113 |
| ImpE2 | 1 | 33953 | 26887 |
| CG14017 | 1 | 20673 | 22417 |
| Eglp3 | 1 | 68830 | 49383 |
| CG7328 | 1 | 57167 | 57027 |
| CG31029 | 1 | 63600 | 60770 |
| Myc | 1 | 21380 | 24990 |
| Hpf1 | 1 | 88233 | 35970 |
| ple | 1 | 62117 | 63197 |
| CG7406 | 1 | 2.51e5 | 2.55e5 |
| Ankrd49 | 1 | 71807 | 70633 |
| mad2 | 1 | 75720 | 79583 |

A stretch of the results above, for reference:
| Target gene | reagent no. | raw ATP luminescence, replicate 1 | raw ATP luminescence, replicate 2 |
| --- | --- | --- | --- |
| dUTPase | 1 | 77520 | 71493 |
| CG5674 | 1 | 21917 | 20803 |
| CG34256 | 1 | 57523 | 54190 |
| d4 | 1 | 77043 | 66393 |
| Ir93a | 1 | 41840 | 40037 |
| Ir93a | 2 | 53090 | 80530 |
| nxf4 | 1 | 70707 | 55827 |
| yellow-d | 1 | 36413 | 59820 |
